Source: publication PMC7033119
These are yes or no findings as the source states them, for the method shown. Each block holds one binder with its values, some of them ahead of it.

Tests used:
[1] = molecular target: Hs mt-AlaRS (residues 31-C) (human) (UniProt Q5JTZ9); assay: SEC; size exclusion chromatography experiments; conditions not told for this experiment; both purified
[2] = molecular target: Hs mt C-Ala (783-985) (human) (UniProt Q5JTZ9); assay: crystal structure; crystal structure analysis of mt C-Ala (constructs 873-C, 802-C, 783-C); no dimer as in prokaryotic AlaRSs; both purified

binding [1]: no binding
B1: Hs mt-AlaRS (residues 31-C) (enzyme, UniProt Q5JTZ9 31-985)
chain: SSEPPAAKASAVRAAFLNFFRDRHGHRLVPSASVRPRGDPSLLFVNAGMNQFKPIFLGTVDPRSEMAGFRRVANSQKCVRAGGHHNDLEDVGRDLSHHTFFEMLGNWAFGGEYFKEEACNMAWELLTQVYGIPEERLWISYFDGDPKAGLDPDLETRDIWLSLGVPASRVLSFGPQENFWEMGDTGPCGPCTEIHYDLAGGVGAPQLVELWNLVFMQHNREADGSLQPLPQRHVDTGMGLERLVAVLQGKHSTYDTDLFSPLLNAIQQGCRAPPYLGRVGVADEGRTDTAYRVVADHIRTLSVCISDGIFPGMSGPPLVLRRILRRAVRFSMEILKAPPGFLGSLVPVVVETLGDAYPELQRNSAQIANLVSEDEAAFLASLERGRRIIDRTLRTLGPSDMFPAEVAWSLSLCGDLGLPLDMVELMLEEKGVQLDSAGLERLAQEEAQHRARQAEPVQKQGLWLDVHALGELQRQGVPPTDDSPKYNYSLRPSGSYEFGTCEAQVLQLYTEDGTAVASVGKGQRCGLLLDRTNFYAEQGGQASDRGYLVRAGQEDVLFPVARAQVCGGFILHEAVAPECLRLGDQVQLHVDEAWRLGCMAKHTATHLLNWALRQTLGPGTEQQGSHLNPEQLRLDVTTQTPLTPEQLRAVENTVQEAVGQDEAVYMEEVPLALTAQVPGLRSLDEVYPDPVRVVSVGVPVAHALDPASQAALQTSVELCCGTHLLRTGAVGDLVIIGDRQLSKGTTRLLAVTGEQAQQARELGQSLAQEVKAATERLSLGSRDVAEALRLSKDIGRLIEAVETAVMPQWQRRELLATVKMLQRRANTAIRKLQMGQAAKKTQELLERHSKGPLIVDTVSAESLSVLVKVVRQLCEQAPSTSVLLLSPQPMGKVLCACQVAQGAMPTFTAEAWALAVCSHMGGKAWGSRVVAQGTGSTTDLEAALSIAQTYALSQL

binding [2]: no binding
B2: Hs mt C-Ala (783-985) (domain or fragment, UniProt Q5JTZ9 783-985)
chain: GEQAQQARELGQSLAQEVKAATERLSLGSRDVAEALRLSKDIGRLIEAVETAVMPQWQRRELLATVKMLQRRANTAIRKLQMGQAAKKTQELLERHSKGPLIVDTVSAESLSVLVKVVRQLCEQAPSTSVLLLSPQPMGKVLCACQVAQGAMPTFTAEAWALAVCSHMGGKAWGSRVVAQGTGSTTDLEAALSIAQTYALSQL
